Results reported in publication PMC11102558.
These are yes or no findings as the source states them, for the method shown. In cells and extracts the contact can be indirect. Some results given as binding are weak or reduced against the parent protein; the word gives no strength. For part of these data: Sequences can lack the tags named with a protein. One block for each molecule: values may come before it.

The chains behind the UniProt entries cited, without tags or fusion partners.
UniProt P46940: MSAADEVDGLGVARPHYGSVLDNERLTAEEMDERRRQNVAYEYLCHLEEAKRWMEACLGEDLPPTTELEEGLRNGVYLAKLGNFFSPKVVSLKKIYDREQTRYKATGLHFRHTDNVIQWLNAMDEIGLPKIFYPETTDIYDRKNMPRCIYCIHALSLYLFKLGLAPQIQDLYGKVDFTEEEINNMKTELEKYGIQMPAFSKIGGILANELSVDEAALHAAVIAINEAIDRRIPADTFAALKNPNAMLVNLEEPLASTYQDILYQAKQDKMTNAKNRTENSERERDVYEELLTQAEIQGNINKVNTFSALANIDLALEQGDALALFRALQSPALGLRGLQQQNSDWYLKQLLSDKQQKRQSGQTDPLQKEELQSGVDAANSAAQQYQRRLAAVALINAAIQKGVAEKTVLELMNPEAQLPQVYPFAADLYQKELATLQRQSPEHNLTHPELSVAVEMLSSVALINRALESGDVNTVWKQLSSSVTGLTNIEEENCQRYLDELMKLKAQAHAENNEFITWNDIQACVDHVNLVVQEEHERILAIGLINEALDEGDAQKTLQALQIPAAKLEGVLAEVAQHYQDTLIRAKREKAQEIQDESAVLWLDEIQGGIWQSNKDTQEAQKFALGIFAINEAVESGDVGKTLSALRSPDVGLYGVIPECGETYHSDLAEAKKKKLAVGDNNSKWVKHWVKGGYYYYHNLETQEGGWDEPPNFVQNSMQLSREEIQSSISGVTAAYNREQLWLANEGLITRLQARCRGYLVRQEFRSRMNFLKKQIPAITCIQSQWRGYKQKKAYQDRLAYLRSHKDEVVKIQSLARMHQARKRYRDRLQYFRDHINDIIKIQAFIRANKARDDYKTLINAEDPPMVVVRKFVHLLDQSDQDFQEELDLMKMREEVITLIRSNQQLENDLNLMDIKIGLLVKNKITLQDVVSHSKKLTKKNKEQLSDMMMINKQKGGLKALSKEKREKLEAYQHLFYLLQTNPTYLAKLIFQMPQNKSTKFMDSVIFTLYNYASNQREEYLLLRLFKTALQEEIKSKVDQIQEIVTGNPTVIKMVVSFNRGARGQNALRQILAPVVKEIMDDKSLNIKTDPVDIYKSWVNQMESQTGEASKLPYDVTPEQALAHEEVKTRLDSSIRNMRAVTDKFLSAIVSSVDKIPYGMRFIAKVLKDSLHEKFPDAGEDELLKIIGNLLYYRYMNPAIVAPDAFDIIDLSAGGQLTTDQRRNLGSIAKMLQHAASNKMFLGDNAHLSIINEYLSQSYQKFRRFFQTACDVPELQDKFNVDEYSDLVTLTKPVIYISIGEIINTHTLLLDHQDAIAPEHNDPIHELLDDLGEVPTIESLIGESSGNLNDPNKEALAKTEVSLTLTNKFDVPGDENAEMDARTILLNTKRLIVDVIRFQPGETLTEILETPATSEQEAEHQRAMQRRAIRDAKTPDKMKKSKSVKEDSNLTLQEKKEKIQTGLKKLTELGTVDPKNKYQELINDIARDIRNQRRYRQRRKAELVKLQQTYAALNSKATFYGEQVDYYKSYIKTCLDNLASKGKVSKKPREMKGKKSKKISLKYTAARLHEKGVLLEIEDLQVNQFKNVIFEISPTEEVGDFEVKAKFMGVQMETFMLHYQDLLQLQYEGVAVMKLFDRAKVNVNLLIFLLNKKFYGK

Key:
[1] = target: T1, FLAG-tagged ROBO4 expressed in COS-7 cells (pHMEF5-ROBO4-FLAG) (UniProt Q8WZ75); assay: co-IP; COS-7 cells transfected with FLAG-tagged ROBO4 and Myc-tagged IQGAP1, 24 h; lysates immunoprecipitated with anti-FLAG antibody; western blotting
T1 sequence: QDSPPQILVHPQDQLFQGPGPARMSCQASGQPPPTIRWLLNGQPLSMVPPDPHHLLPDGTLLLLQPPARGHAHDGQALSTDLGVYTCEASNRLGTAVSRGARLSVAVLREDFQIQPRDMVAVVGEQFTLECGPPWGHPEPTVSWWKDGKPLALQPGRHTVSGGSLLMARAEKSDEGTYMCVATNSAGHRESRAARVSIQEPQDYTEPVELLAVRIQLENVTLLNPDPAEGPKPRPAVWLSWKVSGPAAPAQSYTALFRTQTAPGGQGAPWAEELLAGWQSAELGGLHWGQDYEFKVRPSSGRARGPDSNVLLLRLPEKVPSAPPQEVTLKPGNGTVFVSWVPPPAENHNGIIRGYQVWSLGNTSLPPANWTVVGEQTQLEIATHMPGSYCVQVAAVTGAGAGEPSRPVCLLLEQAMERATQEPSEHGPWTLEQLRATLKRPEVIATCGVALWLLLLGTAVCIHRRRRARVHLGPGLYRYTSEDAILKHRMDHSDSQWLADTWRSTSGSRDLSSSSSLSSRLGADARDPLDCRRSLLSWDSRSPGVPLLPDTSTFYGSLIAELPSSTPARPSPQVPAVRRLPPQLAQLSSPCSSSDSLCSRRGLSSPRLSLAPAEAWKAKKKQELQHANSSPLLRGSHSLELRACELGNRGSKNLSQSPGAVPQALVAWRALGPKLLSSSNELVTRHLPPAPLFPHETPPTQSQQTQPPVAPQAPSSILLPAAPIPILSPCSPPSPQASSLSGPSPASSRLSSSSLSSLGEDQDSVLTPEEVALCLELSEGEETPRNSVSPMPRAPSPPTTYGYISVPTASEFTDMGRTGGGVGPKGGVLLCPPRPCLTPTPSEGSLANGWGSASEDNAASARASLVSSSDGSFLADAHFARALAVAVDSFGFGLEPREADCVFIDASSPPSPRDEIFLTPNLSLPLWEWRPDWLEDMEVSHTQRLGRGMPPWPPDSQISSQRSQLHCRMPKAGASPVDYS

[2] = target: IQGAP1, endogenous in HEK293 cells (human (endogenous in HEK293)) (UniProt P46940); assay: co-IP; HEK293 cells transfected with ROBO4 and TRAF7 expression vectors; lysates immunoprecipitated with antibody against endogenous IQGAP1 (C-9 AC); western blotting

binding [1]: binds
Molecule: Myc-tagged IQGAP1 expressed in COS-7 cells (pcDNA4-IQGAP1-Myc) (from UniProt P46940 1-1657)

binding [2]: binds
B1: ROBO4 expressed in HEK293 cells (pcDNA3-ROBO4) (receptor, UniProt Q8WZ75 28-1007)
chain: T1 sequence

binding [2]: binds
B2: TNF receptor-associated factor 7 (TRAF7) expressed in HEK293 cells (pcDNA3-TRAF7) (enzyme, UniProt Q6Q0C0 1-670)
chain: MSSGKSARYNRFSGGPSNLPTPDVTTGTRMETTFGPAFSAVTTITKADGTSTYKQHCRTPSSSSTLAYSPRDEEDSMPPISTPRRSDSAISVRSLHSESSMSLRSTFSLPEEEEEPEPLVFAEQPSVKLCCQLCCSVFKDPVITTCGHTFCRRCALKSEKCPVDNVKLTVVVNNIAVAEQIGELFIHCRHGCRVAGSGKPPIFEVDPRGCPFTIKLSARKDHEGSCDYRPVRCPNNPSCPPLLRMNLEAHLKECEHIKCPHSKYGCTFIGNQDTYETHLETCRFEGLKEFLQQTDDRFHEMHVALAQKDQEIAFLRSMLGKLSEKIDQLEKSLELKFDVLDENQSKLSEDLMEFRRDASMLNDELSHINARLNMGILGSYDPQQIFKCKGTFVGHQGPVWCLCVYSMGDLLFSGSSDKTIKVWDTCTTYKCQKTLEGHDGIVLALCIQGCKLYSGSADCTIIVWDIQNLQKVNTIRAHDNPVCTLVSSHNVLFSGSLKAIKVWDIVGTELKLKKELTGLNHWVRALVAAQSYLYSGSYQTIKIWDIRTLDCIHVLQTSGGSVYSIAVTNHHIVCGTYENLIHVWDIESKEQVRTLTGHVGTVYALAVISTPDQTKVFSASYDRSLRVWSMDNMICTQTLLRHQGSVTALAVSRGRLFSGAVDSTVKVWTC
